No constants are given. Whether binding was seen depends on the method and setting. In cells and extracts the contact can be indirect. Some results given as binding are weak or reduced against the parent protein; the word gives no strength. For part of these data: Tags and fused reporters may be left off the sequences shown.
What was measured:
Experiment in all cases: pull-down; co-purification: MBP-IQ-6xHis coexpressed with untagged RLC12B or CaM in E. coli Rosetta; nickel resin, 25 mM Tris-HCl pH 8, 300 mM NaCl, 1 mM EGTA, washes with 10 and 30 mM imidazole, elution with 250 mM imidazole; Coomassie SDS-PAGE
[1] = target: T1, MBP-IQ2-6xHis fusion protein (Myo19 IQ2) (human)
T1 sequence: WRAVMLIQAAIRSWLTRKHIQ

By UniProt entry, the sequences of proteins in these tests, tags left out.
UniProt O14950: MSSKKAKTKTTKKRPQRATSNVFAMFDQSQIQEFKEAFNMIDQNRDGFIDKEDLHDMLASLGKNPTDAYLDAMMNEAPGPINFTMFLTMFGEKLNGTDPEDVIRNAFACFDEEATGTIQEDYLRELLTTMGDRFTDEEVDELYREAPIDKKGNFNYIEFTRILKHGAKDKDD

[2] = target: MBP-IQ3-6xHis fusion protein (Myo19 extended IQ3) (human)
[3] = target: T2, MBP-IQ1-6xHis fusion protein (Myo19 IQ1) (human)
T2 sequence: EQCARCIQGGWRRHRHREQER

Substance: RLC12B (untagged) coexpressed with MBP-IQ-6xHis in E. coli (from UniProt O14950 1-172)
- binding [1]: binds
- binding [2]: binds weakly
- binding [3]: no binding

Source: paper PMC9929473, “Ensembles of human myosin-19 bound to calmodulin and regulatory light chain RLC12B drive multimicron transport” (The Journal of Biological Chemistry, 2023)
